Data from PMC3145769.
These are yes or no findings as the source states them, for the method shown. Binding seen in cells or lysates may run through a third protein. Values belong to the binder of their own block, whether it stands above or below them.

Sequences of proteins named here, by UniProt entry; tags and fusion partners are left off. A change or cut given only in a name is not applied to a line headed by its entry.
UniProt P51943: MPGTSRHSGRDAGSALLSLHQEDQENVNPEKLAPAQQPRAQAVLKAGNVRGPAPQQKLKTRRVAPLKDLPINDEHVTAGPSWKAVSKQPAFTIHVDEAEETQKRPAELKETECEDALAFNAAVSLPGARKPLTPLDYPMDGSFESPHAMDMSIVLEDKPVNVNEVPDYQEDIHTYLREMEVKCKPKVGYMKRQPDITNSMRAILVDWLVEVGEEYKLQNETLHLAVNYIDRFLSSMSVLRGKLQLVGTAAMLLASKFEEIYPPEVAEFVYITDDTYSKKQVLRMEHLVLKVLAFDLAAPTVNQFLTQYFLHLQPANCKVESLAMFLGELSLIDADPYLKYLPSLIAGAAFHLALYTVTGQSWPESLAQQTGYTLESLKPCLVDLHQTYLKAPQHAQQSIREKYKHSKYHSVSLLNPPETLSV

Experiments:
[1] = target: Cyclin A2 Triple (M200A, L204A, W207A), C-terminally fused to 3 Flag tags (mouse) (UniProt P51943); experiment: co-IP; anti-Flag M2 affinity gel on extracts of NIH3T3 cells transfected with 3xFlag Cyclin A2 alleles; endogenous partners detected by Western blot; densitometry (ImageQuantTL) normalised to immunoprecipitated Cyclin A2, percent of WT; repeated 5 times
[2] = target: Cyclin A2 W207A, C-terminally fused to 3 Flag tags (mouse) (UniProt P51943); experiment: as above
[3] = target: Cyclin A2 Triple (M200A, L204A, W207A), C-terminally fused to 3 Flag tags (mouse) (UniProt P51943); experiment: co-IP; anti-Flag M2 affinity gel on extracts of human HEK 293 cells transfected with mouse 3xFlag Cyclin A2 alleles; endogenous partners detected by Western blot; densitometry (ImageQuantTL) normalised to immunoprecipitated Cyclin A2, percent of WT; repeated 3 times
[4] = target: Cyclin A2 W207A, C-terminally fused to 3 Flag tags (mouse) (UniProt P51943); experiment: as above

binding [1]: no binding | binding [2]: no binding
B1: p107 (endogenous, NIH3T3) (protein, UniProt Q64701 1-1063)
chain: MFEDEPHAEGAAAVAAAREALQALCQELNLDEGSAAEALDDFTAIRGNYSLEGEVIHWLACSLYVACRKSIIPTVGKGVMEGNCVSLTRILRSAKLSLIQFFSKMKKWMDMSNLPQEFRERIERLERNFEVSTVIFKKFEPIFLDIFQNPYEEPPKLPRSRKQRRIPCSVKDLFNFCWTLFVYTKGNFRMIGDDLVNSYHLLLCCLDLIFANAIMCPNRRDLLNPSFKGLPSDFHAPDFKAAEEPPCIIAVLCDLHDGLLVEAKGIKEHYFKPYISKLFDKKILKGECLLDLSSFTDNSKAVNKEYEEYVLTVGDFDERIFLGADAEEEIGTPRKFTADTPFGKLTSQASVECNLQQHFEKKRSFAPSTPLTGRRYLQEKEAVTTPVASATQSVSRLQSIVAGLKSAPSEQLLNIFESCMRNPMGNIIKIVKGIGETFCQHYTQSTDKQPGSHIDFAVNRLKLAEILYYKILETIMVQETRRLHGMDMSVLLEQDIFHKSLMACCLEIVLFAYSSPRTFPWIIEVLDLQPFYFYKVIEVVIRSEEGLSRDMVKHLNSIEEQILESLAWTNNSALWEALHASANRVPSCEEVIFPNNFEIGNGGNVQGHLPMMPMSPIIHPRVKEVRTDSGSLRQDMQPLSPISVHERYSSPAAGSAKRRLFGDDPPKDTLMDKIMAEGTKLKIAPSSVTAESLSISPGQALLTMATTTVTGTTGRKVTVPLHGIANDAGEITLVPISMNPTQESTAESPVSLTAQSLIGTSPKQTHLTKAQDAHLTGVSKPKRTGSLALFYRKVYHLASVRLRDLCLKLDVSNELRRKIWTCFEFTLVHCPDLMKDRHLDQLLLCAFYIMAKVTKEERTFQEIMKSYRNQPQANSHVYRSVLLKSIPGGVVVYNGDCEMTDGDIEDATKTPNCSSEPVKEERGDLIKFYNTVYVGRVKSFALKYDLSNQDHIMDAPPLSPFPHIKQQPGSPRRISQQHSLYVSPHKNGAGLTPRSALLYKFNGSPSKSLKDINNMIRQGEQKTKKRVIAISGDADSPAKRLCQENDDVLLKRLQDVVSERANH

binding [3]: no binding | binding [4]: no binding
B2: p107 (endogenous, HEK 293) (protein, UniProt P28749 1-1068)
chain: MFEDKPHAEGAAVVAAAGEALQALCQELNLDEGSAAEALDDFTAIRGNYSLEGEVTHWLACSLYVACRKSIIPTVGKGIMEGNCVSLTRILRSAKLSLIQFFSKMKKWMDMSNLPQEFRERIERLERNFEVSTVIFKKYEPIFLDIFQNPYEEPPKLPRSRKQRRIPCSVKDLFNFCWTLFVYTKGNFRMIGDDLVNSYHLLLCCLDLIFANAIMCPNRQDLLNPSFKGLPSDFHTADFTASEEPPCIIAVLCELHDGLLVEAKGIKEHYFKPYISKLFDRKILKGECLLDLSSFTDNSKAVNKEYEEYVLTVGDFDERIFLGADAEEEIGTPRKFTRDTPLGKLTAQANVEYNLQQHFEKKRSFAPSTPLTGRRYLREKEAVITPVASATQSVSRLQSIVAGLKNAPSDQLINIFESCVRNPVENIMKILKGIGETFCQHYTQSTDEQPGSHIDFAVNRLKLAEILYYKILETVMVQETRRLHGMDMSVLLEQDIFHRSLMACCLEIVLFAYSSPRTFPWIIEVLNLQPFYFYKVIEVVIRSEEGLSRDMVKHLNSIEEQILESLAWSHDSALWEALQVSANKVPTCEEVIFPNNFETGNGGNVQGHLPLMPMSPLMHPRVKEVRTDSGSLRRDMQPLSPISVHERYSSPTAGSAKRRLFGEDPPKEMLMDKIITEGTKLKIAPSSSITAENVSILPGQTLLTMATAPVTGTTGHKVTIPLHGVANDAGEITLIPLSMNTNQESKVKSPVSLTAHSLIGASPKQTNLTKAQEVHSTGINRPKRTGSLALFYRKVYHLASVRLRDLCLKLDVSNELRRKIWTCFEFTLVHCPDLMKDRHLDQLLLCAFYIMAKVTKEERTFQEIMKSYRNQPQANSHVYRSVLLKSIPREVVAYNKNINDDFEMIDCDLEDATKTPDCSSGPVKEERGDLIKFYNTIYVGRVKSFALKYDLANQDHMMDAPPLSPFPHIKQQPGSPRRISQQHSIYISPHKNGSGLTPRSALLYKFNGSPSKSLKDINNMIRQGEQRTKKRVIAIDSDAESPAKRVCQENDDVLLKRLQDVVSERANH

binding [1]: no binding
B3: p21 (endogenous, NIH3T3) (protein, UniProt P39689 1-159)
chain: MSNPGDVRPVPHRSKVCRCLFGPVDSEQLRRDCDALMAGCLQEARERWNFDFVTETPLEGNFVWERVRSLGLPKVYLSPGSRSRDDLGGDKRPSTSSALLQGPAPEDHVALSLSCTLVSERPEDSPGGPGTSQGRKRRQTSLTDFYHSKRRLVFCKRKP
